Assay [1] concerns rat primary cerebellar neuron-glia coculture. The assay is described as follows: microglia count (IB4+) per image field (cells per field); higher = more microglia. The settings on record: 1 µM, treatment time 3 days.
Assay [2] shares this test system. The assay is described as follows: median microglial FormFactor (circularity) per image (dimensionless (0-1)); higher = rounder, more ameboid microglia. As to conditions: 1 µM, treatment time 3 days.

± gives the standard deviation of the averaged measurements. This is one part of the list. Values are raw readings; no control value is given beside them.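 A neuron, microglia and astrocyte co-culture models inflammatory neurodegeneration: bacterial LPS drives microglia-dependent neuron loss. Each compound was tested against DMSO vehicle wells on the same plates; BAY61-3606, a SYK inhibitor, was the reference neuroprotective control.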

As to `Cn1c(CCCC(=O)O)nc2cc(N(CCCl)CCCl)ccc21`, the microglia count came to 191 ± 75 in assay [1] (LPS 0 ng/mL) and 399 ± 76 in assay [1] (LPS 100 ng/mL). The “median microglial FormFactor” value in assay [2] (LPS 0 ng/mL) was 0.511 ± 0.12; in assay [2] (LPS 100 ng/mL), 0.653 ± 0.08.
For `Clc1ccc(OC[C@H]2CCN2)cn1` the same measures were 176 ± 92, 438 ± 83, 0.572 ± 0.072 and 0.646 ± 0.063.
The matching figures for `C[C@@H]1CN([C@H]2CC[C@](C#N)(c3ccc(F)cc3)CC2)CC[C@]1(C(=O)O)c1ccccc1`: 166 ± 54, 457 ± 99, 0.554 ± 0.091 and 0.675 ± 0.053.
On to `Cc1cccc(NC(=O)N[C@@H]2N=C(c3ccccc3)c3ccccc3N(C)C2=O)c1`, for which the microglia count in assay [1] (LPS 0 ng/mL) was found to be 183 ± 57; in assay [1] (LPS 100 ng/mL), 414 ± 61. The “median microglial FormFactor” value in assay [2] (LPS 0 ng/mL) worked out at 0.511 ± 0.11; in assay [2] (LPS 100 ng/mL) it was 0.689 ± 0.078.
The matching figures for `O=[N+]([O-])/N=C1\NCCN1Cc1ccc(Cl)nc1`: 183 ± 53, 438 ± 89, 0.528 ± 0.12 and 0.676 ± 0.061.
Consider `NCCc1cc(I)c(Oc2ccc(O)c(I)c2)c(I)c1`, for which the microglia count in assay [1] (LPS 0 ng/mL) was found to be 148 ± 39; in assay [1] (LPS 100 ng/mL), 424 ± 79. The “median microglial FormFactor” value in assay [2] (LPS 0 ng/mL) was 0.604 ± 0.091; in assay [2] (LPS 100 ng/mL) it was 0.691 ± 0.073.
Regarding `c1ccc(CCCN2CCN(CCOC(c3ccccc3)c3ccccc3)CC2)cc1`, the microglia count stood at 213 ± 49 in assay [1] (LPS 0 ng/mL) and 401 ± 91 in assay [1] (LPS 100 ng/mL). Moreover, the “median microglial FormFactor” value in assay [2] (LPS 0 ng/mL) is 0.427 ± 0.066; in assay [2] (LPS 100 ng/mL), 0.716 ± 0.04.
As to `O=C1NC(=O)N(c2cccc3ccccc23)C(=O)/C1=C\c1c[nH]c2ccccc12`, the microglia count in assay [1] (LPS 0 ng/mL) was 193 ± 60; in assay [1] (LPS 100 ng/mL) it was 405 ± 99. Also, the “median microglial FormFactor” value in assay [2] (LPS 0 ng/mL) came to 0.536 ± 0.055; in assay [2] (LPS 100 ng/mL) it was 0.729 ± 0.058.
Turning to `C=C(C)[C@H]1Cc2c(ccc3c2O[C@@H]2COc4cc(OC)c(OC)cc4[C@@H]2C3=O)O1`, the values for the microglia count in assay [1] (LPS 0 ng/mL) and in assay [1] (LPS 100 ng/mL) were 270 ± 97 and 292 ± 83, respectively. In addition, the “median microglial FormFactor” value was 0.594 ± 0.048 in assay [2] (LPS 0 ng/mL) and 0.651 ± 0.045 in assay [2] (LPS 100 ng/mL).
The matching figures for `O=C1CCCC2[C@H]3CNC[C@H](C3)CN12` (some centres undefined): 161 ± 31, 479 ± 130, 0.546 ± 0.093 and 0.616 ± 0.099.
In the case of `C[N+]1(C)[C@@H]2C[C@@H](OC(=O)[C@H](CO)c3ccccc3)C[C@H]1[C@@H]1O[C@@H]12`, the microglia count in assay [1] (LPS 0 ng/mL) amounted to 173 ± 63; in assay [1] (LPS 100 ng/mL), 444 ± 92. Moreover, the “median microglial FormFactor” value amounted to 0.563 ± 0.11 in assay [2] (LPS 0 ng/mL) and 0.652 ± 0.09 in assay [2] (LPS 100 ng/mL).
The matching figures for `C=CCN(CC=C)CCc1c[nH]c2ccc(OC)cc12`: 164 ± 30, 464 ± 86, 0.551 ± 0.081 and 0.624 ± 0.056.
The matching figures for `COc1ccc2c(c[n+](C)c3c4cc5c(cc4ccc23)OCO5)c1OC`: 195 ± 130, 468 ± 160, 0.558 ± 0.097 and 0.609 ± 0.088.
The matching figures for `CCNC(=O)C[C@@H]1N=C(c2ccc(Cl)cc2)c2cc(OC)ccc2-n2c(C)nnc21`: 116 ± 41, 146 ± 120, 0.601 ± 0.044 and 0.624 ± 0.083.
As to `C[C@]12CC[C@H](O)C[C@H]1CC[C@@H]1[C@@H]2CC[C@]2(C)[C@@H](C3=CC(=O)OC3)CC[C@]12O`, the microglia count in assay [1] (LPS 0 ng/mL) is 170 ± 41; in assay [1] (LPS 100 ng/mL), 408 ± 78. Further, the “median microglial FormFactor” value in assay [2] (LPS 0 ng/mL) stood at 0.539 ± 0.069; in assay [2] (LPS 100 ng/mL), 0.66 ± 0.087.
On to `C[N+]1(C)CCO[C@@](O)(c2ccc(-c3ccc([C@@]4(O)C[N+](C)(C)CCO4)cc3)cc2)C1`, for which the values for the microglia count in assay [1] (LPS 0 ng/mL) and in assay [1] (LPS 100 ng/mL) were 176 ± 63 and 429 ± 100, respectively. The “median microglial FormFactor” value in assay [2] (LPS 0 ng/mL) worked out at 0.533 ± 0.093; in assay [2] (LPS 100 ng/mL), 0.671 ± 0.061.
The matching figures for `CCOc1ccccc1N1CCN(Cc2cccc3ccccc23)CC1`: 169 ± 32, 463 ± 82, 0.552 ± 0.1 and 0.644 ± 0.05.
For the molecule `OC1(c2ccc(Cl)cc2)c2ccccc2C2=NCCN21` (centres undefined), the microglia count in assay [1] (LPS 0 ng/mL) is 151 ± 24; in assay [1] (LPS 100 ng/mL), 441 ± 84. For the same molecule, the “median microglial FormFactor” value was 0.574 ± 0.063 in assay [2] (LPS 0 ng/mL) and 0.674 ± 0.1 in assay [2] (LPS 100 ng/mL).
For `O=C(c1ccccc1)C(F)(F)F`, the microglia count is 167 ± 33 in assay [1] (LPS 0 ng/mL) and 438 ± 71 in assay [1] (LPS 100 ng/mL). Also, the entries for the “median microglial FormFactor” value in assay [2] (LPS 0 ng/mL) and in assay [2] (LPS 100 ng/mL) were 0.551 ± 0.087 and 0.657 ± 0.049, respectively.
For the molecule `Cc1cccc([C@H](C)c2c[nH]cn2)c1C`, the microglia count in assay [1] (LPS 0 ng/mL) is 189 ± 48; in assay [1] (LPS 100 ng/mL) it was 463 ± 78. Further, the results for the “median microglial FormFactor” value in assay [2] (LPS 0 ng/mL) and in assay [2] (LPS 100 ng/mL) were 0.598 ± 0.078 and 0.651 ± 0.087, respectively.
For `Clc1ccc2c(c1Cl)CNCC2` the same measures were 186 ± 24, 451 ± 84, 0.545 ± 0.1 and 0.665 ± 0.1.
The matching figures for `CN/C(=N\S(=O)(=O)c1ccc(Cl)cc1)N1CC(c2ccccc2)C(c2ccc(Cl)cc2)=N1` (centres undefined): 175 ± 59, 430 ± 70, 0.556 ± 0.089 and 0.668 ± 0.091.
For `CN(C)C(=O)Oc1ccc2cc(Br)ccc2c1Br` the same measures were 150 ± 39, 471 ± 120, 0.554 ± 0.072 and 0.63 ± 0.054.
As to `N#Cc1nn(-c2c(Cl)cc(C(F)(F)F)cc2Cl)c(N)c1[S+]([O-])C(F)(F)F` (centres undefined), the microglia count in assay [1] (LPS 0 ng/mL) was found to be 161 ± 25; in assay [1] (LPS 100 ng/mL), 408 ± 100. The “median microglial FormFactor” value in assay [2] (LPS 0 ng/mL) is 0.577 ± 0.068; in assay [2] (LPS 100 ng/mL) it was 0.723 ± 0.08.
The matching figures for `O=C(NC1CN2CCC1CC2)c1cc(Br)cc2nc[nH]c12` (centres undefined): 195 ± 70, 422 ± 98, 0.539 ± 0.061 and 0.685 ± 0.07.
The matching figures for `O=C(O[C@H]1C[N+]2(CCCOc3ccccc3)CCC1CC2)C(O)(c1cccs1)c1cccs1`: 159 ± 48, 438 ± 85, 0.56 ± 0.07 and 0.662 ± 0.062.

(Values after the supplement of paper PMC10973195.)
